Source: PubChem BioAssay AID1224826 (NIAID, 2016)
Test: 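Regulators of Tlr4 signalling leading to Tnf-alpha expression in macrophages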 (primary screen). System: RAW264.7 G9 macrophages from mouse bearing reporters for p65 (GFP) and the Tnf promoter (mCherry). Reagents: siRNA pool against mouse genes, 100 nM. Time to read-out: 16 h of LPS stimulation, after 2 days of siRNA transfection. Conditions: bacterial lipopolysaccharide (Salmonella minnesota R595), 10 ng/ml. Measurement: 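Nuclear mCherry signal of the Tnf promoter reporter measured by imaging after background removal, scaled to each plate median and turned into robust z-scores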. Direction: Tnf reporter robust z-score: higher = stronger Tnf promoter reporter signal after LPS. Call rule: 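Called active when robust z-score is at most -1.3, matching the median of the Tlr4 knock-down control, or over 3; control wells and wells with under 50 cells never active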. Meaning of the calls: active = Tnf reporter clearly lowered or raised; inactive = no clear change in Tnf reporter.
The deposit covers about 17,000 reagents; below is a random part of them. Over the whole deposit, about 1,110 (6.6%) were called active. 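Active means lowered or raised reporter signal; replicate intensities are raw and not normalised per plate.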 Further read-outs or replicates are left out here.

gene symbol	Tnf reporter robust z-score	fewer than 50 cells in well	Call
Hpn	-1.33	enough cells in well	active
Psd	2.94	enough cells in well	inactive
Tnfsf15	1.22	enough cells in well	inactive
Or4c102	-0.19	enough cells in well	inactive
Cripto	-0.76	enough cells in well	inactive
Rab9b	1.59	enough cells in well	inactive
Smtnl1	-0.03	enough cells in well	inactive
C1ra	2.19	enough cells in well	inactive
Elp1		fewer than 50 cells per well; well left out of calls	inactive
Map3k19	0.21	enough cells in well	inactive
Psmc3ip		fewer than 50 cells per well; well left out of calls	inactive
Tcfl5	0.14	enough cells in well	inactive
Tdrd3	-0.77	enough cells in well	inactive
Tmem9		fewer than 50 cells per well; well left out of calls	inactive
Nedd4	-1.81	enough cells in well	active
Gja5	-1.11	enough cells in well	inactive
2510039O18Rik	-0.2	enough cells in well	inactive
Jchain		fewer than 50 cells per well; well left out of calls	inactive
Bmal2	-0.34	enough cells in well	inactive
Or1j16	-0.08	enough cells in well	inactive
Eps8	0.55	enough cells in well	inactive
Serpinb9	-0.51	enough cells in well	inactive
Eefsec	0.7	enough cells in well	inactive
Or14a260	-0.02	enough cells in well	inactive
